PubChem BioAssay AID1259308, NCATS – 2017
This is one part, drawn at random, of about 59,000 reagents. Of all reagents, about 1,510 (2.6%) got an active call. 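Calls use total luciferase alone and ignore viability, so some active siRNAs may act by altering cell number.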 The numbers tell different reagents against one gene apart. Further read-outs or replicates are left out here.

Aim: 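Knock-downs that increase output of a recombinant reporter protein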 (primary screen)
System: human HEK293 embryonic kidney cells stably expressing firefly luciferase (HEK-CMV-Luc2-Hygro)
Reagents: single siRNA against human genes, 0.8 pmol siRNA per well
Timing: 72 h
Detection: 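Reporter luminescence and viable-cell signal on separate replicate plates, given as percent of non-targeting control and median/MAD z-scores, plus per-cell luciferase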
Reading the numbers: total luciferase, z-score: higher = more reporter protein produced
Rule for the call: 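Active when the median/MAD z-score for overall luciferase is greater than 3; a gene was taken forward for validation with new siRNAs if at least two of its three siRNAs passed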
Meaning of the calls: active = raised luciferase; inactive = no rise

total luciferase, z-score, by target gene and reagent
DVL2: #1 -1.36 inactive; #2 -0.146 inactive; #3 -1.72 inactive
FAM117A: #1 -2.31 inactive; #2 -1.44 inactive; #3 0.208 inactive
OR4K15: #1 -1.14 inactive; #2 -0.232 inactive; #3 1.75 inactive
AKAP8L: #1 -0.883 inactive; #2 0.435 inactive; #3 -0.0336 inactive
MVK: #1 -0.668 inactive; #2 0.292 inactive; #3 -0.448 inactive
COL18A1-AS1: #1 0.79 inactive; #2 -0.675 inactive; #3 0.657 inactive
PHKB: #1 0.0977 inactive; #2 -2.06 inactive; #3 -1.32 inactive
NPTXR: #1 0.806 inactive; #2 0.332 inactive; #3 0.612 inactive
BORCS6: #1 -0.525 inactive; #2 -0.0401 inactive; #3 0.438 inactive

Part of the list above, set out differently:
{"target gene": "OR4K15", "siRNA no.": 3, "total luciferase, z-score": 1.75, "call": "inactive"}
{"target gene": "AKAP8L", "siRNA no.": 1, "total luciferase, z-score": -0.883, "call": "inactive"}
{"target gene": "AKAP8L", "siRNA no.": 2, "total luciferase, z-score": 0.435, "call": "inactive"}
{"target gene": "AKAP8L", "siRNA no.": 3, "total luciferase, z-score": -0.0336, "call": "inactive"}
{"target gene": "MVK", "siRNA no.": 1, "total luciferase, z-score": -0.668, "call": "inactive"}

The list goes on.
total luciferase, z-score, by target gene and reagent
DDX3Y: #1 0.798 inactive; #2 -0.139 inactive; #3 0.473 inactive
GUK1: #1 1.11 inactive; #2 0.503 inactive; #3 3.15 active
SPATA2L: #1 1.6 inactive; #2 2.11 inactive; #3 0.415 inactive
VPS45: #1 -0.183 inactive; #2 0.601 inactive; #3 -0.2 inactive
VSNL1: #1 2.64 inactive; #2 -0.851 inactive; #3 2.17 inactive
SPPL2C: #1 -0.391 inactive; #2 1.65 inactive; #3 -0.456 inactive
DNMT3L: #1 -0.204 inactive; #2 0.221 inactive; #3 -0.613 inactive
COG5: #1 -1.59 inactive; #2 -1.12 inactive; #3 -0.636 inactive
ARPP19P1: #1 1.1 inactive; #2 0.192 inactive; #3 0.238 inactive
PPP3CB: #1 2.11 inactive; #2 -1.54 inactive; #3 0.0697 inactive
